{
  "source": "patent US4034082A",
  "about": "(Abbott Laboratories, priority 1976, dated 1977)",
  "experiment": "general procedure: Boc solid-phase peptide synthesis; chloromethylated divinylbenzene-styrene copolymer (Bio-Rad Merrifield resin), 2% cross linking, Boc-Pro esterified, 0.47",
  "details": "whole synthesis, overall, scale of the general procedure 4.6 g resin",
  "note": "Strings that start with PEPTIDE1 are HELM notation: dots part the residues, brackets hold end groups and non-standard residues.",
  "data": [
    {"substance": "PEPTIDE1{[pGlu].H.W.S.Y.[dW].L.R.P.[NHEt]}$$$$V2.0", "values": [
      {"measurement": "isolated yield", "result": 25, "unit": "%"}
    ]}
  ]
}
